Experimental data reported in PMC7615239.
These are yes or no findings as the source states them, for the method shown. Binding seen in cells or lysates may run through a third protein. Some entries that bind do so weakly or less than the wild type. Tags and fused reporters may be left off the sequences shown.

Protein sequences, listed by entry. Tags and fused reporters are not part of them.
UniProt Q9FIE3: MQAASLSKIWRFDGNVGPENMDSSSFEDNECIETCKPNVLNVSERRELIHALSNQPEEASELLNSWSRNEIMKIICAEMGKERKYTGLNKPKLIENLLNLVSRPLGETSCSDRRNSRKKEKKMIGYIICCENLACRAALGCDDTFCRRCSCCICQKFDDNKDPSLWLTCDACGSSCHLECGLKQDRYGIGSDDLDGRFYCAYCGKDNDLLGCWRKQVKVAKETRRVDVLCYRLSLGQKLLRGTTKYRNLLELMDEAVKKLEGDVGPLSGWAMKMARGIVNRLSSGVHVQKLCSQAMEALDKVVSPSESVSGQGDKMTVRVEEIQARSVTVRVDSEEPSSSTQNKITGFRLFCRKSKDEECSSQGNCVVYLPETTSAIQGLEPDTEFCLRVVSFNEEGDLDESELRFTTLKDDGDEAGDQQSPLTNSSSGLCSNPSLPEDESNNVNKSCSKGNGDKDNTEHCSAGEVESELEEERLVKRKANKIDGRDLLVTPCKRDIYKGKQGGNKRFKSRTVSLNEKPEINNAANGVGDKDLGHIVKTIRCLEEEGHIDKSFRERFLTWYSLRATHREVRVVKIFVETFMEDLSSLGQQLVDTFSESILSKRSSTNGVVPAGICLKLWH

T1: GFP-VRN5 (Arabidopsis thaliana) (UniProt Q9LHF5)
T1 sequence: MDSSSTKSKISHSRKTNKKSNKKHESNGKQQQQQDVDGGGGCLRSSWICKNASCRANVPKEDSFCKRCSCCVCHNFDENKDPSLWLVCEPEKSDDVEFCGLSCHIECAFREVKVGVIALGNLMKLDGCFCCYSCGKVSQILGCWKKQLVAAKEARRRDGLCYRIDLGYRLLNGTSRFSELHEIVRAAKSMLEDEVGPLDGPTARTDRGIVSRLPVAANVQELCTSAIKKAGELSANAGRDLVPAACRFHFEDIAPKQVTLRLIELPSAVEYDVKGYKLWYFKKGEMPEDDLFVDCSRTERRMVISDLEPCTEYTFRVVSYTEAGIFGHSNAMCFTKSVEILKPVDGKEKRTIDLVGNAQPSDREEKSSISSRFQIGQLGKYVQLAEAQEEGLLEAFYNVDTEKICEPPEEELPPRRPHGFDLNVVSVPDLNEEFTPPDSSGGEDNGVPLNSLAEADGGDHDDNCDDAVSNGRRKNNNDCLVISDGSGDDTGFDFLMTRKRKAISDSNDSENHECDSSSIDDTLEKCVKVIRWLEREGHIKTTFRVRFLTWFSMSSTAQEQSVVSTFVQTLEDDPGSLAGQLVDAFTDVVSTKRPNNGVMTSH

T2: GFP-VEL1 (Arabidopsis thaliana) (UniProt Q9SUM4)
T2 sequence: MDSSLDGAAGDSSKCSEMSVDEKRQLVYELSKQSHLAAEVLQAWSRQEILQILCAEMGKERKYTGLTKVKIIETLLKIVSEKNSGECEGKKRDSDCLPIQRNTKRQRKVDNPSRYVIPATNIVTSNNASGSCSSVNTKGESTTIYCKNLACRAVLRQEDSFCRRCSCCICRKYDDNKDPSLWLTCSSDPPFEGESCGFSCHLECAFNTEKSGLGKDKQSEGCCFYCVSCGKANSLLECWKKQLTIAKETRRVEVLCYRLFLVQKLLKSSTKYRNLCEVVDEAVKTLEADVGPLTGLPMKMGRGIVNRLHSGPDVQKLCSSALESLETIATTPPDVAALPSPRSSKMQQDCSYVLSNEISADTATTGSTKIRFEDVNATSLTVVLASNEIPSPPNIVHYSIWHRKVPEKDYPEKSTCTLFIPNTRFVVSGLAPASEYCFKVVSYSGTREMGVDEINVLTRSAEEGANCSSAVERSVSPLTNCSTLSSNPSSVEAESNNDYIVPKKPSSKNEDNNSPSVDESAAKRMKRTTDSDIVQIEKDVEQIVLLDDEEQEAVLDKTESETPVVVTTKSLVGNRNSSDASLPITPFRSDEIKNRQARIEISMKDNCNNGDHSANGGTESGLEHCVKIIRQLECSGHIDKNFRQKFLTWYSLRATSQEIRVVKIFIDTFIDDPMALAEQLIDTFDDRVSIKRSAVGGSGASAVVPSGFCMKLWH

T3: GFP-VAL1 (Arabidopsis) (UniProt Q8W4L5)
T3 sequence: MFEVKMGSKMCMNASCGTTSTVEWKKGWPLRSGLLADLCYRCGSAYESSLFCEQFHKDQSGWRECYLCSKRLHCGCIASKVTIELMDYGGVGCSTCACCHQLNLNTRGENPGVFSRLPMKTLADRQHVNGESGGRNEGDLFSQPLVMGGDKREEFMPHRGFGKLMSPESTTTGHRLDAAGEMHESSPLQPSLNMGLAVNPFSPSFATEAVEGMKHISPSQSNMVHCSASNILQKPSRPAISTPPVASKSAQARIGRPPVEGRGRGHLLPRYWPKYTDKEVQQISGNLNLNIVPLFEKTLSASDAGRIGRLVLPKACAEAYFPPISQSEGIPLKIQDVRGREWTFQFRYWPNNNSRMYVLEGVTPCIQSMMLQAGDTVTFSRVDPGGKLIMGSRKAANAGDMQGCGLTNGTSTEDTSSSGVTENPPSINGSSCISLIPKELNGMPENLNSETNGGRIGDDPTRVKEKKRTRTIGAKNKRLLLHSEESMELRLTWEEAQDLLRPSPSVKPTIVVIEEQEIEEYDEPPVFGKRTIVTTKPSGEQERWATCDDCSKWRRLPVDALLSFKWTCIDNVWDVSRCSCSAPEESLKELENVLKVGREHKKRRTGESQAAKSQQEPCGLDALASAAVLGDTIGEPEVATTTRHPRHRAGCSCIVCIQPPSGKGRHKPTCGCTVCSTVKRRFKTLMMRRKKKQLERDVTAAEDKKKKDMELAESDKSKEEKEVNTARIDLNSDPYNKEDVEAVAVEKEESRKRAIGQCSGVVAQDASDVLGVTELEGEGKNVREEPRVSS

T4: GFP-tagged VRN2 (Arabidopsis) (UniProt Q8W5B1)
T4 sequence: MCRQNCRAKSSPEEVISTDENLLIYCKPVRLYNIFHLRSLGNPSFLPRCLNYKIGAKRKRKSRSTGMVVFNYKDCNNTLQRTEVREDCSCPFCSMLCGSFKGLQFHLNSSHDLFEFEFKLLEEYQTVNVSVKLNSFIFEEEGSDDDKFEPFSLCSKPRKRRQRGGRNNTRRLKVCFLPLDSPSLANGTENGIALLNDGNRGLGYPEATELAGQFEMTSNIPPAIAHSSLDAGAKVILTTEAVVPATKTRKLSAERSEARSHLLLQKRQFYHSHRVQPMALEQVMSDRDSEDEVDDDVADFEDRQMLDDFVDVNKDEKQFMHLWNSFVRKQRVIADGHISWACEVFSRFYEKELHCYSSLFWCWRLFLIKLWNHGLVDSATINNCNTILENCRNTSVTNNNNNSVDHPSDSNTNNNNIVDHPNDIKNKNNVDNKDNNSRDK


How the values were obtained:
[1] = molecular target: VIN3-GFP (Arabidopsis thaliana) (UniProt Q9FIE3); assay: co-IP; GFP-tagged VEL protein (wt, mutant or chimera) coexpressed with all four HA-tagged PRC2 subunits (VRN2, SWN, FIE, MSI1) in HEK293T; GFP-trap 90 min at 4°C; lysis buffer 20 mM Tris pH 7.4, 200 mM NaCl, 10% glycerol, 0.2% Triton X-100; anti-HA blot
[2] = molecular target: T1, GFP-VRN5 (Arabidopsis thaliana); assay: as above
[3] = molecular target: T2, GFP-VEL1 (Arabidopsis thaliana); assay: as above
GFP-VAL1 (Arabidopsis) = molecular target: T3, GFP-VAL1 (Arabidopsis); assay: co-IP; GFP-VAL1 (wt or internal deletions) coexpressed with FLAG-dsRed-tagged VEL proteins (wt or mutant) in HEK293T; GFP-trap; anti-FLAG blot
[4] = molecular target: T4, GFP-tagged VRN2 (Arabidopsis); assay: co-IP; GFP-tagged VRN2 coexpressed with SWN, MSI1 and FIE, without or with VRN5, in HEK293T (Supplemental Fig. S1F,G)

Row | Binder | binding [1] | binding [2] | binding [3] | binding (GFP-VAL1 (Arabidopsis)) | binding [4]
1 | HA-tagged VRN2 (protein, UniProt Q8W5B1 1-440) MCRQNCRAKSSPEEVISTDENLLIYCKPVRLYNIFHLRSLGNPSFLPRCLNYKIGAKRKRKSRSTGMVVFNYKDCNNTLQRTEVREDCSCPFCSMLCGSFKGLQFHLNSSHDLFEFEFKLLEEYQTVNVSVKLNSFIFEEEGSDDDKFEPFSLCSKPRKRRQRGGRNNTRRLKVCFLPLDSPSLANGTENGIALLNDGNRGLGYPEATELAGQFEMTSNIPPAIAHSSLDAGAKVILTTEAVVPATKTRKLSAERSEARSHLLLQKRQFYHSHRVQPMALEQVMSDRDSEDEVDDDVADFEDRQMLDDFVDVNKDEKQFMHLWNSFVRKQRVIADGHISWACEVFSRFYEKELHCYSSLFWCWRLFLIKLWNHGLVDSATINNCNTILENCRNTSVTNNNNNSVDHPSDSNTNNNNIVDHPNDIKNKNNVDNKDNNSRDK | binds weakly | binds | binds weakly |  | 
2 | FLAG-dsRed-VRN5 (protein, UniProt Q9LHF5 1-602) MDSSSTKSKISHSRKTNKKSNKKHESNGKQQQQQDVDGGGGCLRSSWICKNASCRANVPKEDSFCKRCSCCVCHNFDENKDPSLWLVCEPEKSDDVEFCGLSCHIECAFREVKVGVIALGNLMKLDGCFCCYSCGKVSQILGCWKKQLVAAKEARRRDGLCYRIDLGYRLLNGTSRFSELHEIVRAAKSMLEDEVGPLDGPTARTDRGIVSRLPVAANVQELCTSAIKKAGELSANAGRDLVPAACRFHFEDIAPKQVTLRLIELPSAVEYDVKGYKLWYFKKGEMPEDDLFVDCSRTERRMVISDLEPCTEYTFRVVSYTEAGIFGHSNAMCFTKSVEILKPVDGKEKRTIDLVGNAQPSDREEKSSISSRFQIGQLGKYVQLAEAQEEGLLEAFYNVDTEKICEPPEEELPPRRPHGFDLNVVSVPDLNEEFTPPDSSGGEDNGVPLNSLAEADGGDHDDNCDDAVSNGRRKNNNDCLVISDGSGDDTGFDFLMTRKRKAISDSNDSENHECDSSSIDDTLEKCVKVIRWLEREGHIKTTFRVRFLTWFSMSSTAQEQSVVSTFVQTLEDDPGSLAGQLVDAFTDVVSTKRPNNGVMTSH |  |  |  | binds weakly | 

Next, values leading:

Row | binding [1] | binding [2] | binding [3] | binding (GFP-VAL1 (Arabidopsis)) | binding [4] | Binder
3 |  |  |  | binds weakly |  | FLAG-dsRed-VEL1 (protein, UniProt Q9SUM4 1-714) MDSSLDGAAGDSSKCSEMSVDEKRQLVYELSKQSHLAAEVLQAWSRQEILQILCAEMGKERKYTGLTKVKIIETLLKIVSEKNSGECEGKKRDSDCLPIQRNTKRQRKVDNPSRYVIPATNIVTSNNASGSCSSVNTKGESTTIYCKNLACRAVLRQEDSFCRRCSCCICRKYDDNKDPSLWLTCSSDPPFEGESCGFSCHLECAFNTEKSGLGKDKQSEGCCFYCVSCGKANSLLECWKKQLTIAKETRRVEVLCYRLFLVQKLLKSSTKYRNLCEVVDEAVKTLEADVGPLTGLPMKMGRGIVNRLHSGPDVQKLCSSALESLETIATTPPDVAALPSPRSSKMQQDCSYVLSNEISADTATTGSTKIRFEDVNATSLTVVLASNEIPSPPNIVHYSIWHRKVPEKDYPEKSTCTLFIPNTRFVVSGLAPASEYCFKVVSYSGTREMGVDEINVLTRSAEEGANCSSAVERSVSPLTNCSTLSSNPSSVEAESNNDYIVPKKPSSKNEDNNSPSVDESAAKRMKRTTDSDIVQIEKDVEQIVLLDDEEQEAVLDKTESETPVVVTTKSLVGNRNSSDASLPITPFRSDEIKNRQARIEISMKDNCNNGDHSANGGTESGLEHCVKIIRQLECSGHIDKNFRQKFLTWYSLRATSQEIRVVKIFIDTFIDDPMALAEQLIDTFDDRVSIKRSAVGGSGASAVVPSGFCMKLWH
4 | binds weakly | binds | binds weakly |  | binds | HA-tagged FIE (protein, UniProt Q9LT47 1-369) MSKITLGNESIVGSLTPSNKKSYKVTNRIQEGKKPLYAVVFNFLDARFFDVFVTAGGNRITLYNCLGDGAISALQSYADEDKEESFYTVSWACGVNGNPYVAAGGVKGIIRVIDVNSETIHKSLVGHGDSVNEIRTQPLKPQLVITASKDESVRLWNVETGICILIFAGAGGHRYEVLSVDFHPSDIYRFASCGMDTTIKIWSMKEFWTYVEKSFTWTDDPSKFPTKFVQFPVFTASIHTNYVDCNRWFGDFILSKSVDNEILLWEPQLKENSPGEGASDVLLRYPVPMCDIWFIKFSCDLHLSSVAIGNQEGKVYVWDLKSCPPVLITKLSHNQSKSVIRQTAMSVDGSTILACCEDGTIWRWDVITK
